Measured values published in the supplement of paper PMC8960247.

Test system: 621-102 (TSC2-deficient)
Assay: relative viability vs DMSO (fraction); higher = less cytotoxic
Settings: serum: 0.1% FBS, 72 h

Molecule `NCCc1ccc(O)c(O)c1` [Dopamine HCl] has a relative viability (0.0128 nM) of 0.772, a relative viability (0.064 nM) of 0.708 and a relative viability (0.32 nM) of 0.687. It also gave a relative viability (1.6 nM) of 0.758, a relative viability (8 nM) of 0.787 and a relative viability (40 nM) of 0.774. It also gave a relative viability (200 nM) of 0.748, a relative viability (1000 nM) of 0.831 and a relative viability (5000 nM) of 0.67.
`CCN[C@H]1C[C@H](C)S(=O)(=O)c2sc(S(N)(=O)=O)cc21` [Dorzolamide HCl] showed a relative viability (0.0128 nM) of 0.886, a relative viability (0.064 nM) of 0.861 and a relative viability (0.32 nM) of 0.879. It also gave a relative viability (1.6 nM) of 0.802, a relative viability (8 nM) of 0.884 and a relative viability (40 nM) of 0.773. It also gave a relative viability (200 nM) of 0.758, a relative viability (1000 nM) of 0.7 and a relative viability (5000 nM) of 0.713.
`COc1cc2nc(N3CCN(C(=O)C4COc5ccccc5O4)CC3)nc(N)c2cc1OC` (centres undefined) [Doxazosin Mesylate] was tested, and the relative viability (0.0128 nM) was 0.922, the relative viability (0.064 nM) was 0.933 and the relative viability (0.32 nM) was 0.865. It also gave a relative viability (1.6 nM) of 0.848, a relative viability (8 nM) of 0.885 and a relative viability (40 nM) of 0.828. The relative viability (200 nM) was 0.799, the relative viability (1000 nM) was 0.743 and the relative viability (5000 nM) was 0.604.
With `Cc1cc(Cl)ccc1OCCCC(=O)NO` [Droxinostat] the relative viability (0.0128 nM) was 0.788, the relative viability (0.064 nM) was 0.795 and the relative viability (0.32 nM) was 0.734. It also gave a relative viability (1.6 nM) of 0.669, a relative viability (8 nM) of 0.634 and a relative viability (40 nM) of 0.67. For the same molecule, the relative viability (200 nM) was 0.629, the relative viability (1000 nM) was 0.604 and the relative viability (5000 nM) was 0.562.
Molecule `C[C@]12C=CC(=O)N[C@@H]1CC[C@@H]1[C@@H]2CC[C@]2(C)[C@@H](C(=O)Nc3cc(C(F)(F)F)ccc3C(F)(F)F)CC[C@@H]12` [Dutasteride] has a relative viability (0.0128 nM) of 0.722, a relative viability (0.064 nM) of 0.711 and a relative viability (0.32 nM) of 0.715. The relative viability (1.6 nM) was 0.645, the relative viability (8 nM) was 0.654 and the relative viability (40 nM) was 0.564. For the same molecule, the relative viability (200 nM) was 0.516, the relative viability (1000 nM) was 0.483 and the relative viability (5000 nM) was 0.534.
For `Cc1cc(Nc2cc(N3CCN(C)CC3)nc(/C=C/c3ccccc3)n2)n[nH]1` [ENMD-2076], the relative viability (0.0128 nM) was 0.838, the relative viability (0.064 nM) was 0.768 and the relative viability (0.32 nM) was 0.695. It also gave a relative viability (1.6 nM) of 0.227, a relative viability (8 nM) of 0.761 and a relative viability (40 nM) of 0.123. It also gave a relative viability (200 nM) of 0.689, a relative viability (1000 nM) of 0.634 and a relative viability (5000 nM) of 0.622.
`CC1=NN(c2ccc(C)c(C)c2)C(=O)/C1=N\Nc1cccc(-c2cccc(C(=O)O)c2)c1O` [Eltrombopag Olamine] was tested, and the relative viability (0.0128 nM) was 0.792, the relative viability (0.064 nM) was 0.719 and the relative viability (0.32 nM) was 0.663. It also gave a relative viability (1.6 nM) of 0.687, a relative viability (8 nM) of 0.671 and a relative viability (40 nM) of 0.313. For the same molecule, the relative viability (200 nM) was 0.207, the relative viability (1000 nM) was 0.0862 and the relative viability (5000 nM) was 0.0321.
With `Nc1nc(=O)n([C@@H]2CS[C@H](CO)O2)cc1F` [Emtricitabine] the relative viability (0.0128 nM) was 0.645, the relative viability (0.064 nM) was 0.71 and the relative viability (0.32 nM) was 0.738. For the same molecule, the relative viability (1.6 nM) was 0.772, the relative viability (8 nM) was 0.695 and the relative viability (40 nM) was 0.716. The relative viability (200 nM) was 0.652, the relative viability (1000 nM) was 0.486 and the relative viability (5000 nM) was 0.198.
Molecule `CCOC(=O)[C@H](CCc1ccccc1)N[C@@H](C)C(=O)N1CCC[C@H]1C(=O)O` [Enalapril Maleate] has a relative viability (0.0128 nM) of 0.762, a relative viability (0.064 nM) of 0.721 and a relative viability (0.32 nM) of 0.741. For the same molecule, the relative viability (1.6 nM) was 0.759, the relative viability (8 nM) was 0.669 and the relative viability (40 nM) was 0.7. For the same molecule, the relative viability (200 nM) was 0.635, the relative viability (1000 nM) was 0.723 and the relative viability (5000 nM) was 0.711.
With `C[C@H](N[C@@H](CCc1ccccc1)C(=O)O)C(=O)N1CCC[C@H]1C(=O)O` [Enalaprilat Dihydrate] the relative viability (0.0128 nM) was 0.651, the relative viability (0.064 nM) was 0.659 and the relative viability (0.32 nM) was 0.748. It also gave a relative viability (1.6 nM) of 0.717, a relative viability (8 nM) of 0.787 and a relative viability (40 nM) of 0.767. The relative viability (200 nM) was 0.882, the relative viability (1000 nM) was 0.769 and the relative viability (5000 nM) was 0.809.
Work on `CNC[C@H](O)c1ccc(O)c(O)c1` [Epinephrine Bitartrate] yielded a relative viability (0.0128 nM) of 0.886, a relative viability (0.064 nM) of 0.827 and a relative viability (0.32 nM) of 0.815. The relative viability (1.6 nM) was 0.795, the relative viability (8 nM) was 0.816 and the relative viability (40 nM) was 0.802. For the same molecule, the relative viability (200 nM) was 0.818, the relative viability (1000 nM) was 0.825 and the relative viability (5000 nM) was 0.799.
Work on `C/C(=C\c1csc(C)n1)[C@@H]1C[C@@H]2O[C@@H]2CCC[C@H](C)[C@H](O)[C@@H](C)C(=O)C(C)(C)[C@@H](O)CC(=O)O1` [Epothilone A] yielded a relative viability (0.0128 nM) of 1.15, a relative viability (0.064 nM) of 1.22 and a relative viability (0.32 nM) of 1.27. For the same molecule, the relative viability (1.6 nM) was 0.376, the relative viability (8 nM) was 0.0202 and the relative viability (40 nM) was 0.0137. The relative viability (200 nM) was 0.0161, the relative viability (1000 nM) was 0.0135 and the relative viability (5000 nM) was 0.0119.
`C/C(=C\c1csc(C)n1)[C@@H]1C[C@@H]2O[C@]2(C)CCC[C@H](C)[C@H](O)[C@@H](C)C(=O)C(C)(C)[C@@H](O)CC(=O)O1` [Epothilone B (EPO906, Patupilone)] was tested, and the relative viability (0.0128 nM) was 1.15, the relative viability (0.064 nM) was 0.88 and the relative viability (0.32 nM) was 0.0632. For the same molecule, the relative viability (1.6 nM) was 0.0136, the relative viability (8 nM) was 0.0115 and the relative viability (40 nM) was 0.0109. For the same molecule, the relative viability (200 nM) was 0.0118, the relative viability (1000 nM) was 0.0111 and the relative viability (5000 nM) was 0.0156.
In the case of `C#Cc1cccc(Nc2ncnc3cc(OCCOC)c(OCCOC)cc23)c1` [Erlotinib HCl (OSI-744)], the relative viability (0.0128 nM) is reported as 0.894, the relative viability (0.064 nM) is reported as 0.845 and the relative viability (0.32 nM) is reported as 0.918. For the same molecule, the relative viability (1.6 nM) was 0.752, the relative viability (8 nM) was 0.761 and the relative viability (40 nM) was 0.65. The relative viability (200 nM) was 0.743, the relative viability (1000 nM) was 0.651 and the relative viability (5000 nM) was 0.513.
For `COc1ccc2[nH]c([S@@+]([O-])Cc3ncc(C)c(OC)c3C)nc2c1` [Esomeprazole Sodium], the relative viability (0.0128 nM) was 0.656, the relative viability (0.064 nM) was 0.673 and the relative viability (0.32 nM) was 0.734. The relative viability (1.6 nM) was 0.687, the relative viability (8 nM) was 0.671 and the relative viability (40 nM) was 0.681. The relative viability (200 nM) was 0.692, the relative viability (1000 nM) was 0.763 and the relative viability (5000 nM) was 0.621.
Molecule `COc1cc([C@@H]2c3cc4c(cc3[C@@H](O[C@@H]3O[C@@H]5CO[C@@H](C)O[C@H]5[C@H](O)[C@H]3O)[C@H]3COC(=O)[C@H]23)OCO4)cc(OC)c1O` [Etoposide] has a relative viability (0.0128 nM) of 0.862, a relative viability (0.064 nM) of 0.926 and a relative viability (0.32 nM) of 1.06. The relative viability (1.6 nM) was 1.01, the relative viability (8 nM) was 0.945 and the relative viability (40 nM) was 0.308. It also gave a relative viability (200 nM) of 0.336, a relative viability (1000 nM) of 0.0672 and a relative viability (5000 nM) of 0.0313.
`CO[C@H]1C[C@@H]2CC[C@@H](C)[C@@](O)(O2)C(=O)C(=O)N2CCCC[C@H]2C(=O)O[C@H]([C@H](C)C[C@@H]2CC[C@@H](OCCO)[C@H](OC)C2)CC(=O)[C@H](C)/C=C(\C)[C@@H](O)[C@@H](OC)C(=O)[C@H](C)C[C@H](C)/C=C/C=C/C=C/1C` [Everolimus (RAD001)] was tested, and the relative viability (0.0128 nM) was 1.03, the relative viability (0.064 nM) was 0.999 and the relative viability (0.32 nM) was 0.916. It also gave a relative viability (1.6 nM) of 0.81, a relative viability (8 nM) of 0.514 and a relative viability (40 nM) of 0.319. It also gave a relative viability (200 nM) of 0.284, a relative viability (1000 nM) of 0.236 and a relative viability (5000 nM) of 0.153.
`C=C1C[C@@H]2[C@H](CC[C@]3(C)C(=O)CC[C@@H]23)[C@@]2(C)C=CC(=O)C=C12` [Exemestane] gave a relative viability (0.0128 nM) of 1.49, a relative viability (0.064 nM) of 1.53 and a relative viability (0.32 nM) of 1.92. The relative viability (1.6 nM) was 1.4, the relative viability (8 nM) was 0.024 and the relative viability (40 nM) was 0.00955. For the same molecule, the relative viability (200 nM) was 0.00877, the relative viability (1000 nM) was 0.00845 and the relative viability (5000 nM) was 0.00753.
Work on `O=S(=O)(c1cccc2cnccc12)N1CCCNCC1` [Fasudil (HA-1077) HCl] yielded a relative viability (0.0128 nM) of 1.06, a relative viability (0.064 nM) of 0.954 and a relative viability (0.32 nM) of 0.989. The relative viability (1.6 nM) was 1.05, the relative viability (8 nM) was 0.954 and the relative viability (40 nM) was 0.923. It also gave a relative viability (200 nM) of 1.05, a relative viability (1000 nM) of 1.11 and a relative viability (5000 nM) of 0.894.
For `Cc1nc(-c2ccc(OCC(C)C)c(C#N)c2)sc1C(=O)O` [Febuxostat], the relative viability (0.0128 nM) was 1.22, the relative viability (0.064 nM) was 1.29 and the relative viability (0.32 nM) was 1.37. It also gave a relative viability (1.6 nM) of 1.39, a relative viability (8 nM) of 1.14 and a relative viability (40 nM) of 0.74. The relative viability (200 nM) was 1.03, the relative viability (1000 nM) was 0.924 and the relative viability (5000 nM) was 0.737.
`CCOC(=O)C1=C(C)NC(C)=C(C(=O)OC)C1c1cccc(Cl)c1Cl` (centres undefined) [Felodipine] gave a relative viability (0.0128 nM) of 0.974, a relative viability (0.064 nM) of 0.948 and a relative viability (0.32 nM) of 0.893. It also gave a relative viability (1.6 nM) of 0.923, a relative viability (8 nM) of 0.874 and a relative viability (40 nM) of 0.87. For the same molecule, the relative viability (200 nM) was 0.804, the relative viability (1000 nM) was 0.804 and the relative viability (5000 nM) was 0.888.

Where a name gives a salt, the structure may show the parent alone. Single values of this set are uncertain.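 Immortalized human renal angiomyolipoma cells with an empty vector keep TSC2 lost. A luminescent ATP assay measured viability, normalized per plate to vehicle-treated wells, in low-serum medium where TSC2-rescued cells fail to grow.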
